Reference: article PMC8196013
Results are given in words; binding and its absence hold for the method and conditions named. Binding seen in cells or lysates may run through a third protein. Some entries that bind do so weakly or less than the wild type. Values belong to the binder of their own block, whether it stands above or below them.

Assays:
Test in all cases: cross-linking; BS3 or DSSO (0.75 mM, 2 h on ice) in each of 44 SEC fractions of E. coli K12 BW25113 lysate, fractions pooled, digested, SCX and hSAX fractionation, LC-MS; PPIs at 1% heteromeric decoy-based PPI-FDR
[1] = target: T1, YqjD (E. coli K12 (endogenous in BW25113)) (UniProt P64581)
T1 sequence: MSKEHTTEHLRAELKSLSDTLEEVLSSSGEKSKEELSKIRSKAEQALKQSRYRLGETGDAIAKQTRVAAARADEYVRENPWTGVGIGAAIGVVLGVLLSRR

[2] = target: T2, YgaM (E. coli K12 (endogenous in BW25113)) (UniProt P0ADQ7)
T2 sequence: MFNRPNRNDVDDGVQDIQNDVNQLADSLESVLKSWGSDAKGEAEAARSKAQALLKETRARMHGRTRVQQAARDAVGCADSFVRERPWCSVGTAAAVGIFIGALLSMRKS

[3] = target: T3, DegQ (E. coli K12 (endogenous in BW25113)) (UniProt P39099)
T3 sequence: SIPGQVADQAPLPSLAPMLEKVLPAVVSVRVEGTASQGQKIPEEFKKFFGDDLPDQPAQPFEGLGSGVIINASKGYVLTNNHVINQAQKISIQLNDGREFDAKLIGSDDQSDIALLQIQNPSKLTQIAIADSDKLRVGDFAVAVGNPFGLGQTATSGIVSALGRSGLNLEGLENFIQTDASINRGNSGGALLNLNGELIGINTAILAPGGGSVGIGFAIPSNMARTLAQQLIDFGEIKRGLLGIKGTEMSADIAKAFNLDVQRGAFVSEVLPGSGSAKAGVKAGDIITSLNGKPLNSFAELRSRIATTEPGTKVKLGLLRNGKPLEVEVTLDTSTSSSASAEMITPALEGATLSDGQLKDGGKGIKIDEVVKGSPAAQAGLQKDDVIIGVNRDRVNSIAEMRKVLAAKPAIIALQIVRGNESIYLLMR

[4] = target: T4, UbiJ (E. coli K12 (endogenous in BW25113)) (UniProt P0ADP7)
T4 sequence: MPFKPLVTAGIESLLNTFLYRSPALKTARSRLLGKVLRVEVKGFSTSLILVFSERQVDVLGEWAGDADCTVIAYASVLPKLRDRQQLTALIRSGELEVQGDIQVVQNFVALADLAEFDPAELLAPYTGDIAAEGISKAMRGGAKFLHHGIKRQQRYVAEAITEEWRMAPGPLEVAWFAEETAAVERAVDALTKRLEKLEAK

- binding [1]: binds
- binding [2]: binds
B1: ElaB (protein, UniProt P0AEH5 1-101)
chain: MSNQFGDTRIDDDLTLLSETLEEVLRSSGDPADQKYVELKARAEKALDDVKKRVSQASDSYYYRAKQAVYRADDYVHEKPWQGIGVGAAVGLVLGLLLARR

- binding [3]: binds
B2: DegP (enzyme, UniProt P0C0V0 27-474)
chain: AETSSATTAQQMPSLAPMLEKVMPSVVSINVEGSTTVNTPRMPRNFQQFFGDDSPFCQEGSPFQSSPFCQGGQGGNGGGQQQKFMALGSGVIIDADKGYVVTNNHVVDNATVIKVQLSDGRKFDAKMVGKDPRSDIALIQIQNPKNLTAIKMADSDALRVGDYTVAIGNPFGLGETVTSGIVSALGRSGLNAENYENFIQTDAAINRGNSGGALVNLNGELIGINTAILAPDGGNIGIGFAIPSNMVKNLTSQMVEYGQVKRGELGIMGTELNSELAKAMKVDAQRGAFVSQVLPNSSAAKAGIKAGDVITSLNGKPISSFAALRAQVGTMPVGSKLTLGLLRDGKQVNVNLELQQSSQNQVDSSSIFNGIEGAEMSNKGKDQGVVVNNVKTGTPAAQIGLKKGDVIIGANQQAVKNIAELRKVLDSKPSVLALNIQRGDSTIYLLMQ

- binding [4]: binds
B3: UbiK (protein, UniProt Q46868 1-96)
chain: MIDPKKIEQIARQVHESMPKGIREFGEDVEKKIRQTLQAQLTRLDLVSREEFDVQTQVLLRTREKLALLEQRISELENRSTEIKKQPDPETLPPTL
